Among the data in PMC7819943, “Rice protein-binding microarrays: a tool to detect cis-acting elements near promoter regions in rice” are binding signal values, retold here.

Chains of the proteins cited; added tags and fusions are not shown.
UniProt Q0JBA9, entry or part of it: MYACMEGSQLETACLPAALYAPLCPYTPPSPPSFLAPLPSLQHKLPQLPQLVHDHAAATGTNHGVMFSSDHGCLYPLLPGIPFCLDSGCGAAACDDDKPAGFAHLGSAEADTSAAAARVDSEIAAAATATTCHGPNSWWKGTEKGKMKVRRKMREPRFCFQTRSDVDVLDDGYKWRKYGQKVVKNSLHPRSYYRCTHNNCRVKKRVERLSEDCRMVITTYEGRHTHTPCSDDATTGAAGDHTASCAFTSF

The other results are listed elsewhere or left out.

For this assay, the target named is OsWRKY34 (Oryza sativa, UniProt Q0JBA9 1-250). Kind of assay: protein-binding microarray (RPBM); PBS, 2% BSA, 51.3 ng/ul salmon testes DNA, 50 uM zinc acetate, 200 nM TF, 25 C, 1 h; high values mean tight binding. The following applies: protein: recombinant; tags: N-terminal polyhistidine and DsRed monomer fusion (pET32a); label: CyDye5-dUTP incorporated in the synthesized complementary strand; 3' TTTTT single-stranded linker to array surface; dsDNA, one strand shown. The method in brief:
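Ni–NTA purification followed expression in E. coli BL21-CodonPlus of transcription factors fused N-terminally to a polyhistidine tag and DsRed. At 200 nM in PBS with 2% BSA, salmon testes DNA and 50 µM zinc acetate, the protein was incubated for 1 h at 25 °C with a custom Agilent array that had been primer-extended with Cy5-dUTP and blocked with 2% BSA. After washing, the array was read on an Axon 4000B scanner. The binding signal is per-feature fluorescence intensity in arbitrary units.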
On to “ATACACTCTCTCGATCGCTTAATACTCCGTAGCTTTCAATCGGAGTCACCTAGTGCAG”, for which the binding signal was 8670 fluorescence intensity (a.u.).
With “TGGGGTTCTTTCATTCAGTCAGTTTGATGTTCTCTTCCTACGGAGTCACCTAGTGCAG” the figure was 9880 fluorescence intensity (a.u.); with “AAACGCTATCCGCTAACCCCTCGCGCCGTCGCGCTTCCTGCGGAGTCACCTAGTGCAG”, 8710 fluorescence intensity (a.u.).
The figure for “AATTTGACAAGCATCCATAATAAGATTCAGATAACTTCCTCGGAGTCACCTAGTGCAG” is 14300 fluorescence intensity (a.u.); for “CTCCCTCTATCAAAAAAATGTTTGACGCCGTTGACTTTTTCGGAGTCACCTAGTGCAG” it is 25600 fluorescence intensity (a.u.).
Turning to “AGTTGTGGGCATGAATCGGATCGTGTAGGATGGGGATAGGCGGAGTCACCTAGTGCAG”, the binding signal is 11400 fluorescence intensity (a.u.).
On to “GCTCTCCGCCTCTCCTGACTCCGGTGAGCAATTCCAAACCCGGAGTCACCTAGTGCAG”, for which the binding signal was 9120 fluorescence intensity (a.u.).
On to “CGCCGGTTGCTTCCATATACTCTGCTCCTTTTTTTTCTATCGGAGTCACCTAGTGCAG”, for which the binding signal was 9240 fluorescence intensity (a.u.).
With “ATGTATGATATTTCGTATACTTAAATTTACTTTTCATTTTCGGAGTCACCTAGTGCAG”, the binding signal is 9040 fluorescence intensity (a.u.).
Take “TTTTCTTCTATGCGTTGTGACCTGTCCATCTATGTACTGTCGGAGTCACCTAGTGCAG”: the binding signal is 11400 fluorescence intensity (a.u.).
Consider “TCCGTTCAATAATCCAAATCAAACGTACCATTCGGCTTTCCGGAGTCACCTAGTGCAG”, for which the binding signal is 8580 fluorescence intensity (a.u.).
For “TCGTCTCTCTGTGTATGTTCATGGGTCCCACATAGCAATTCGGAGTCACCTAGTGCAG”, the binding signal is 9520 fluorescence intensity (a.u.).
With “CGGGGAGTTGACTCAGATATTAAGAGTTTTTTCTTTTTCACGGAGTCACCTAGTGCAG” the figure was 8540 fluorescence intensity (a.u.); with “ACGCTCTATCTGTTTACTCTCTCCCGTTTCATTTTAATTACGGAGTCACCTAGTGCAG”, 13500 fluorescence intensity (a.u.); with “CTATATATACCTCTCCCTTGTACTTGTCCAGTTCTTACACCGGAGTCACCTAGTGCAG”, 9540 fluorescence intensity (a.u.).
“TTTTTGTCAGAATTCTATGTTTTTTCTATTCCTCCGTTTTCGGAGTCACCTAGTGCAG”: the binding signal is 9460 fluorescence intensity (a.u.).
Turning to “TATGGTCCTCTAGTTTTTCATCTACTCCACATGTGGCTCTCGGAGTCACCTAGTGCAG”, the binding signal is 9270 fluorescence intensity (a.u.).
Regarding “ATACACATACGCTCGCTGCTTGGCTGGACGTCCGATATTTCGGAGTCACCTAGTGCAG”, the binding signal is 9780 fluorescence intensity (a.u.).
With “AAAGTTTGACTTTTAAGAACAATTTAAGTGTACCTTTTAACGGAGTCACCTAGTGCAG” the figure was 11100 fluorescence intensity (a.u.).
Consider “TTGTCTCGCAACACAATCTCACTGCAGCAAACAATATCTTCGGAGTCACCTAGTGCAG”, for which the binding signal was 8680 fluorescence intensity (a.u.).
“GGTTGGATATTTGCTTGTAATTCTATATGTTTTTTTTCTGCGGAGTCACCTAGTGCAG”: the binding signal was 10400 fluorescence intensity (a.u.).
Take “TCTGCGCGACCCGCTACCACCCACACATCTTCCCGTCTCACGGAGTCACCTAGTGCAG”: the binding signal is 8320 fluorescence intensity (a.u.).
With “AATATTCACAACCGTACCCCTCGATCTACCCACCGCCGCCCGGAGTCACCTAGTGCAG”, the binding signal is 9810 fluorescence intensity (a.u.).
In the case of “TCCTTCTCTGACTCTGTCTTGGCCATCCTATTCCTAGCTCCGGAGTCACCTAGTGCAG”, the binding signal was 10600 fluorescence intensity (a.u.).
With “GAGCTGGACCCATGCATTTTGTTGCACCTTGAAAGTTTTACGGAGTCACCTAGTGCAG” the figure was 9680 fluorescence intensity (a.u.).
Take “TAGCTCGGATTCTGCCCCTAATCCCGCCGTCCGCCTCCGCCGGAGTCACCTAGTGCAG”: the binding signal was 8490 fluorescence intensity (a.u.).
Regarding “AATGTTCTATAGTCGACCTGTAACTCGTTTTTTAGGAAAACGGAGTCACCTAGTGCAG”, the binding signal was 8330 fluorescence intensity (a.u.).
With “CGCTGCTTTTGCTGCTGCTGTTGATGATGCATCCCATTCCCGGAGTCACCTAGTGCAG”, the binding signal is 9140 fluorescence intensity (a.u.).
For the sequence “ATTATCCTTTCCCCGTTTCCGACCAGGCTTTCCACAGAAACGGAGTCACCTAGTGCAG”, the binding signal was 9430 fluorescence intensity (a.u.).
As for “GCACCTCTTTCCTATCACGCGTCACCTTGCTCCATTGTCGCGGAGTCACCTAGTGCAG”, the binding signal is 19000 fluorescence intensity (a.u.).
“TCTGTTGTGCTCTTTCGTGTGATAGATCGATTTTTTGATTCGGAGTCACCTAGTGCAG”: the binding signal is 10600 fluorescence intensity (a.u.).
Take “TCTACACATTTTTTTTGACGCCTCTGTTCGTGGCATTCGTCGGAGTCACCTAGTGCAG”: the binding signal was 12700 fluorescence intensity (a.u.).
On to “TTCGTTTGACCAATGCTGTTACTGCCCTATATAAACCTTCCGGAGTCACCTAGTGCAG”, for which the binding signal was 11900 fluorescence intensity (a.u.).
Take “ATTGAGAGGGTTTGAAAGGGGTTGATGTGTGGTGAAGGGTCGGAGTCACCTAGTGCAG”: the binding signal was 9210 fluorescence intensity (a.u.).
Consider “ACGCCACCCGCGTCCTATCCATTCCACGGTTCGTTTCCACCGGAGTCACCTAGTGCAG”, for which the binding signal is 9290 fluorescence intensity (a.u.).
With “AGGGCTTTCGGTTTTTTGGTTTTCCTTTCGTCACCGTCTCCGGAGTCACCTAGTGCAG” the figure was 9140 fluorescence intensity (a.u.).
The figure for “ATCCACCCTCTATTCATCTACTCGGTTAGATGATCATTCACGGAGTCACCTAGTGCAG” is 8130 fluorescence intensity (a.u.); for “TCTTCGGTTTACTTATGTCCTGGCTGGTTGGGAGGGGACACGGAGTCACCTAGTGCAG” it is 19100 fluorescence intensity (a.u.); for “AGAGTTCACATCTACGATTTGGTTGCTTGCATTCTCGCCACGGAGTCACCTAGTGCAG” it is 8370 fluorescence intensity (a.u.).
On to “CGTTGGAAAGCTACTGTTTTGACCCGTTCACACCACTACGCGGAGTCACCTAGTGCAG”, for which the binding signal is 9680 fluorescence intensity (a.u.).
With “CCTATCTGTTACTTTGGTATTGCAGCTTGTTTGCTTCTAGCGGAGTCACCTAGTGCAG” the figure was 8380 fluorescence intensity (a.u.); with “AACAAACCAACCTAGGATACTACTGTCAATTTTCACAACCCGGAGTCACCTAGTGCAG”, 9280 fluorescence intensity (a.u.).
